PubChem BioAssay AID1259308 – NCATS, 2017
Here is one part, drawn at random, of about 59,000 deposited reagents. Over the whole deposit, about 1,510 (2.6%) are marked active. 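Calls use total luciferase alone and ignore viability, so some active siRNAs may act by altering cell number.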 Entries without a mark were called inactive. Reagents against one gene are numbered here. Further read-outs or replicates are left out here. No sequences are given here.

Assay: 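Genes whose loss raises luciferase production in HEK293 cells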 (primary screen)
System: human HEK293 embryonic kidney cells stably expressing firefly luciferase (HEK-CMV-Luc2-Hygro)
Knock-down reagent: single siRNA against human genes, 0.8 pmol siRNA per well
Duration: 72 h
Detection: 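Luciferase light (ONE-Glo) measured on one replicate plate set and viability (CellTiter-Glo) on the other, scaled to a negative control siRNA, with robust z-scores and luciferase per cell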
Direction: total luciferase, z-score and total luciferase, % of control: higher = more reporter protein produced; luciferase per cell, z-score: higher = more reporter output per viable cell
Call rule: 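An siRNA counts as active if its total luciferase robust z-score exceeds 3; genes with two or more such siRNAs out of three were retested with fresh siRNAs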
Calls: active = raised luciferase; inactive = no rise

Target gene,reagent,"total luciferase, z-score","total luciferase, % of control","luciferase per cell, z-score"
VSIG10L2,1,0.0941,83.8,0.428
VSIG10L2,2,3.41 (active),150,3.06
VSIG10L2,3,-1.26,56.8,-0.923
FAM167A,1,-0.44,73.1,-0.628
FAM167A,2,-0.515,71.6,-0.222
FAM167A,3,-0.768,66.6,-0.446
PRKD3,1,1.46,111,2.16
PRKD3,2,-0.754,66.9,-0.569
PRKD3,3,-1.09,60.2,-0.789
FGL1,1,0.143,84.7,-0.0573
FGL1,2,0.178,85.4,-0.793
FGL1,3,-0.883,64.3,-1.36
ADSS1,1,-0.317,75.6,-0.294
ADSS1,2,3.02 (active),142,2.09
ADSS1,3,0.465,91.1,0.349
RHEBL1,1,-0.758,66.8,-1.11
RHEBL1,2,2.21,126,0.911
RHEBL1,3,1.21,106,1.27
NUDT17,1,-2.21,37.9,-1.48
NUDT17,2,1.73,116,1.14
NUDT17,3,-0.583,70.3,-0.795

Continued, starting with the last 5 of the part before.
Target gene,reagent,"total luciferase, z-score","total luciferase, % of control","luciferase per cell, z-score"
RHEBL1,2,2.21,126,0.911
RHEBL1,3,1.21,106,1.27
NUDT17,1,-2.21,37.9,-1.48
NUDT17,2,1.73,116,1.14
NUDT17,3,-0.583,70.3,-0.795
DBI,1,0.212,86.1,-0.575
DBI,2,-3.32,15.9,-2.93
DBI,3,-0.213,77.6,-0.51
OMA1,1,-1.45,53,-1.54
OMA1,2,-2.12,39.7,-2.22
OMA1,3,0.0526,82.9,-0.64
FAAP100,1,-0.172,78.5,-0.35
FAAP100,2,1.43,110,1.51
FAAP100,3,-1.22,57.7,-1.17
DDHD1,1,-1.32,55.6,-1.51
DDHD1,2,-2.17,38.8,-2.05
DDHD1,3,-0.523,71.5,-0.64
GTF3C4,1,0.158,85,-0.334
GTF3C4,2,-0.473,72.5,-0.265
GTF3C4,3,0.905,99.9,1.59
OLFML1,1,-0.324,75.4,-0.547
OLFML1,2,-0.733,67.3,0.381
OLFML1,3,-1.75,47,-1.03
